From PubChem BioAssay AID901 (National Center for Advancing Translational Sciences (NCATS), 2007) come the findings set out here.

This is one part of the list. Further columns of the screen follow, without active or inactive calls. Compounds called inactive in the main read-out are mostly missing here. The note in brackets gives the kind of curve behind each potency; many fits are weak.

The experiment is described as follows: qHTS Assay for Identifying the Cell-Membrane Permeable IMPase Inhibitors. As to conditions: CHO-M1 cells, IP1 accumulation, HTRF TR-FRET ratio; measured here: donor channel 620 nm AC50. A general note: Quantitative high-throughput screening tests each substance at several concentrations.
Usually AC50 stands for the concentration at which the activity in the assay is half-maximal. With `FC(F)(F)c1cc(-c2cccs2)nc(N2CCOCC2)n1`, the concentration at half-maximal activity (AC50) was 0.282 µM [rising, full curve, poor fit].

As for `Cc1nc(SC2CC(=O)N(c3ccc([N+](=O)[O-])cc3)C2=O)nc2c1CCCC2` (stereo not drawn), the concentration at half-maximal activity (AC50) was 0.316 µM [falling, partial curve, poor fit].

For the compound `O=C(CSc1nc(-c2ccc(F)cc2)cc(C(F)(F)F)n1)NCc1ccccc1`, the AC50 is 0.501 µM [falling, full curve]. To `CCOc1ccc(OCC(=O)N2CCOCC2)cc1` belongs 0.891 µM [falling, full curve, poor fit]; to `CNCCCC12CCC(c3ccccc31)c1ccccc12`, 7.94 µM [falling, single point]. As for `CCOC(=O)c1nnn(CC(=O)Nc2cc(F)ccc2F)c1C(=O)OCC`, the figure is 0.0316 µM [falling, full curve, poor fit]; as for `COC(=O)c1[nH]c2cc(OC)ccc2c1N`, 12.6 µM [falling, single point]; as for `O=C(c1ccc2c(c1)OCO2)N1CCN(c2ccc(F)cc2)CC1`, 0.0501 µM [rising, partial curve, poor fit]. Regarding `Cc1ccc(Cn2c(NC(=O)c3ccco3)nc3ccccc32)cc1`, the concentration at half-maximal activity (AC50) was 3.16 µM [falling, single point]. For `Cc1cccc(C)c1NC(=O)NC1(C(=O)NCCCN2CCOCC2)CCCCC1`, the AC50 is 3.98 µM [falling, single point]. In the case of `COCCCNC(=O)c1cc2c(=O)n3cc(C)ccc3nc2nc1NCC1CCCO1` (stereo not drawn), the AC50 is 0.0282 µM [rising, full curve]. For the compound `Cc1c(C(=O)O)c(O)cc2c1C(=O)c1c(O)c([C@H]3O[C@H](CO)[C@@H](O)[C@H](O)[C@H]3O)c(O)c(O)c1C2=O`, the AC50 is 3.98 µM [falling, partial curve, poor fit]. Consider `O=S(=O)(c1cccc(S(=O)(=O)N2CCC(Cc3ccccc3)CC2)c1)N1CCOCC1`, for which the AC50 is 0.0126 µM [falling, full curve, poor fit].

As to `CC(C)CNC(=O)c1noc2c1CCCC2`, the AC50 is 12.6 µM [falling, partial curve]. As to `Cc1ccnc(NC(=O)CCC(=O)N(CC(=O)NC2CCCCC2)Cc2ccc3c(c2)OCO3)c1`, the AC50 was 5.01 µM [falling, single point]. Turning to `O=C(C1CCCN(S(=O)(=O)c2cccc3nonc23)C1)N1CCN(c2ccccc2F)CC1` (stereo not drawn), the AC50 was 3.16 µM [falling, partial curve, poor fit]. As for `CCCCCN1C(C(=O)c2ccccc2)=C(NC(=O)c2ccc(OC)c(OC)c2)c2ccccc2S1(=O)=O`, the figure is 5.62 µM [rising, single point]; as for `O=C1CCc2cc(S(=O)(=O)N3CCC(C(=O)NCc4ccccn4)CC3)ccc2N1`, 0.0398 µM [rising, full curve, poor fit]. Consider `CCC(C)(C)NC(=O)C(c1ccccc1F)N(Cc1ccco1)C(=O)Cn1nnc2ccccc21` (stereo not drawn), for which the AC50 is 25.1 µM [falling, single point]. As for `CCCC(c1nnnn1Cc1ccc(OC)cc1)N1CCN(c2ccccc2)CC1` (stereo not drawn), the half-maximal activity concentration (AC50) is 31.6 µM [falling, single point]. On to `COC(=O)C1=C(CSc2nc3c(cc2C#N)CN(C)CC3)OC(N)=C(C#N)C1c1ccc(F)cc1` (stereo not drawn), for which the concentration at half-maximal activity (AC50) is 0.251 µM [rising, single point]. Turning to `O=C(Nc1ccc2nc(-c3cccnc3)[nH]c2c1)c1ccco1`, the AC50 is 17.8 µM [falling, single point]. For the compound `CCS(=O)(=O)n1nc(-c2ccccc2)nc1N`, the AC50 was 1 µM [falling, single point].

On to `COc1ccccc1-c1c(C(F)(F)F)oc2c(CN3CCCCC3C)c(O)ccc2c1=O` (stereo not drawn), for which the concentration at half-maximal activity (AC50) was 3.55 µM [falling, partial curve, poor fit]. For `COC(=O)c1ccc(C(=O)OC)c(-n2c(=O)c3ccccc3c3ccccc3c2=O)c1`, the AC50 was 35.5 µM [falling, single point].

For `Cc1cccc2cc(CN(Cc3ccc4c(c3)OCO4)Cc3nnnn3C3CCCC3)c(=O)[nH]c12`, the half-maximal activity concentration (AC50) was 31.6 µM [rising, single point]. `COC(=O)C1=C(C)N(C)C(C)=C(C(=O)OC)C1c1ccc(C(=O)OC)cc1`: the AC50 was 0.794 µM [falling, full curve, poor fit].

For the compound `CCCSc1nc2c(cnn2-c2ccc(C)cc2)c(=O)[nH]1`, the AC50 is 35.5 µM [falling, single point].

For the compound `COC(=O)c1sc(N2C(=O)C(O)=C(C(=O)c3ccc(C)o3)C2c2ccc(F)cc2)nc1C` (stereo not drawn), the AC50 is 20 µM [rising, partial curve]. For the compound `c1cnc(N2CC[N+]3(CCCC3)CC2)nc1`, the AC50 was 5.01 µM [falling, single point]. As to `C=CCOc1cccc(C2C(C(=O)c3ccc(C)o3)=C(O)C(=O)N2c2nccs2)c1` (stereo not drawn), the half-maximal activity concentration (AC50) is 15.8 µM [rising, partial curve, poor fit]. As for `CCCCOc1ccc(C(=O)N2CCCC2C(=O)O)cc1` (stereo not drawn), the half-maximal activity concentration (AC50) is 5.62 µM [falling, single point].

Take `CCn1c(=O)cc(SCC(=O)N2CCCCC2)c2ccccc21`: the AC50 was 0.0126 µM [rising, full curve, poor fit]. As for `CC(=O)CCCCn1c(=O)c2c(ncn2C)n(C)c1=O`, the concentration at half-maximal activity (AC50) was 0.0251 µM [falling, full curve, poor fit]. As to `COc1ccc2c(c1)CCc1c(C(=O)N3CCCC3)noc1-2`, the AC50 is 31.6 µM [falling, single point]. As for `Cc1nonc1NC(=O)CSc1nc2cc(Cl)ccc2c2c1CCCC2`, the figure is 12.6 µM [rising, partial curve]. As to `O=C1CC(N2CCN(c3ccccc3)CC2)C(=O)N1c1ccc2c(c1)OCCO2` (stereo not drawn), the AC50 was 6.31 µM [rising, single point]. Regarding `O=C(CSc1nnc(-c2ccncc2)n1Cc1ccco1)Nc1nccs1`, the concentration at half-maximal activity (AC50) is 35.5 µM [rising, single point]. To `COc1cc(-c2nnc(-c3ccccc3)o2)cc(OC)c1OC` belongs 0.794 µM [falling, full curve]; to `COc1ccc(NC(=O)c2c(NC(=O)Cc3ccccc3)sc3c2CCCC3)cc1`, 0.0501 µM [falling, full curve, poor fit]; to `N#C/C(=C\C1CC2C=CC1C2)c1nc2ccccc2[nH]1` (stereo not drawn), 25.1 µM [falling, partial curve]. Take `Cc1cc(C)cc(-n2c(SCC(=O)NCc3ccc4c(c3)OCO4)nc3ccccc3c2=O)c1`: the AC50 was 35.5 µM [rising, single point].

For the compound `CC(=O)C1=C(O)C(=O)N(C2CCCCC2)C1c1ccccc1` (stereo not drawn), the concentration at half-maximal activity (AC50) is 0.794 µM [falling, full curve]. In the case of `O=C1C(=O)c2ccc(-c3ccccc3)cc2-c2ccccc21`, the half-maximal activity concentration (AC50) is 1 µM [falling, full curve]. To `Cc1cccc(-c2nc(SCC(=O)Nc3ccc4c(c3)OCCO4)c(-c3ccccc3)[nH]2)c1` belongs 2.82 µM [falling, partial curve]; to `O=C(NCC(=O)N(Cc1ccccc1)C(C(=O)NCC1CCCO1)c1ccccc1)c1cccs1` (stereo not drawn), 35.5 µM [falling, single point]. In the case of `O=C(CCN1C(=O)c2ccccc2C1=O)Nc1cccnc1`, the AC50 was 0.316 µM [falling, partial curve]. As for `O=C1CCCCCN1Cc1nnc(SCc2nc3ccccc3s2)n1-c1ccccn1`, the AC50 is 10 µM [falling, partial curve]. On to `CCOC(=O)C1(Cc2ccccc2)NC(c2ccccc2F)C2C(=O)N(CC)C(=O)C21` (stereo not drawn), for which the concentration at half-maximal activity (AC50) was 0.0316 µM [rising, full curve, poor fit].

Take `COc1ccccc1NC(=O)N1CCC(C(=O)c2ccc(F)cc2)CC1`: the AC50 is 0.0501 µM [falling, full curve, poor fit].

Take `CCc1nc(SCC(=O)NCc2ccco2)c2c3c(sc2n1)CCCC3`: the AC50 was 39.8 µM [rising, partial curve, poor fit].

As for `CC(C)Oc1ccc(/C=N/NC(=O)C(CSCc2ccccc2)NC(=O)c2ccc([N+](=O)[O-])cc2)cc1` (stereo not drawn), the concentration at half-maximal activity (AC50) is 1 µM [falling, partial curve, poor fit]. For `Cc1c(CCOC(=O)C23CC4CC(CC(C)(C4)C2)C3)sc[n+]1Cc1ccccc1`, the concentration at half-maximal activity (AC50) was 15.8 µM [rising, partial curve, poor fit]. For the compound `Cc1cc(C(=O)CSc2nnc(Cc3ccccc3)o2)c(C)n1Cc1ccc2c(c1)OCO2`, the AC50 was 0.158 µM [falling, full curve, poor fit]. To `O=C(Nc1c2c(nn1-c1ccc(F)cc1)CS(=O)C2)C12CC3CC(CC(C3)C1)C2` (stereo not drawn) belongs 2.51 µM [falling, full curve, poor fit]; to `Cc1ccc(S(=O)(=O)C2(C(=O)Nc3ccc(F)cc3)CC2)cc1`, 1.26 µM [falling, partial curve]. As to `Nc1c(C(=O)Nc2ccc(Br)cc2)sc2nc(-c3ccco3)ccc12`, the AC50 was 0.794 µM [falling, full curve]. Turning to `CC(C)Cn1c(CCC(=O)O)ccc1-c1cccs1`, the AC50 is 0.0251 µM [falling, full curve]. Take `Cc1cc2cc(CNC(=O)c3ccc(S(=O)(=O)N(C)C)cc3)ccc2n1C`: the concentration at half-maximal activity (AC50) is 2 µM [falling, partial curve].

As for `CCN1CCCC1CNC(=O)CCc1nc(-c2ccc(C)cc2)no1` (stereo not drawn), the AC50 is 3.16 µM [rising, single point].

As for `COc1ccc2nc(C(C)O)[nH]c2c1` (stereo not drawn), the AC50 is 5.01 µM [falling, single point]. Turning to `CCCCSC1(SCCCC)N=C(N)C2(C#N)C(c3ccccc3)NC(C)=CC12C#N` (stereo not drawn), the concentration at half-maximal activity (AC50) is 0.0126 µM [rising, full curve, poor fit]. In the case of `Oc1ccc(Br)cc1-c1cc(-c2ccccc2F)[nH]n1`, the AC50 was 0.0158 µM [falling, full curve].
